# No constants are given. Whether binding was seen depends on the method and setting. Binding seen in cells or lysates may run through a third protein. Some binding calls cover weakened binding; strength is not graded here.
# Sequences of proteins named here, by UniProt entry; tags and fusion partners are left off. Residues count along the entry.
# UniProt P05106, residues 27-788: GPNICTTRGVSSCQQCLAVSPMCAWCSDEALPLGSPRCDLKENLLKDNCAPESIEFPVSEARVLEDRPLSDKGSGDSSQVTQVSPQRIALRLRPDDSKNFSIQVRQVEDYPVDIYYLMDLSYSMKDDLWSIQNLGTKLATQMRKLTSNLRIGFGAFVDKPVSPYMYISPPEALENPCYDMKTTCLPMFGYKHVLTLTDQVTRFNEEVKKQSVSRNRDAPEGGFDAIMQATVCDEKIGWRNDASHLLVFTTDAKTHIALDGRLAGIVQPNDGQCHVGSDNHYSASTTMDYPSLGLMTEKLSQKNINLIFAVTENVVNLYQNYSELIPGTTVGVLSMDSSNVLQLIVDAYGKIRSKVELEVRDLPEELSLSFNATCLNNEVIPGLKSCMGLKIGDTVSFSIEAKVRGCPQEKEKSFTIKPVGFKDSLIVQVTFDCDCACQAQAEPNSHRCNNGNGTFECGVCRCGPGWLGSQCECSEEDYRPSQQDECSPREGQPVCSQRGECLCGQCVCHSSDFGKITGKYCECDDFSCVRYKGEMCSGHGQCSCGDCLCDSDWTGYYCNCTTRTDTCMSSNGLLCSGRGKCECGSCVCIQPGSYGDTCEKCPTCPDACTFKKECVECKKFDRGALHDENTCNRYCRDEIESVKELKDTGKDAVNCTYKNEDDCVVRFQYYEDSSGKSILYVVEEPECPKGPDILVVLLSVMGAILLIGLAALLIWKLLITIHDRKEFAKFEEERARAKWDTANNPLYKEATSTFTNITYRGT
# UniProt O14786, residues 22-923: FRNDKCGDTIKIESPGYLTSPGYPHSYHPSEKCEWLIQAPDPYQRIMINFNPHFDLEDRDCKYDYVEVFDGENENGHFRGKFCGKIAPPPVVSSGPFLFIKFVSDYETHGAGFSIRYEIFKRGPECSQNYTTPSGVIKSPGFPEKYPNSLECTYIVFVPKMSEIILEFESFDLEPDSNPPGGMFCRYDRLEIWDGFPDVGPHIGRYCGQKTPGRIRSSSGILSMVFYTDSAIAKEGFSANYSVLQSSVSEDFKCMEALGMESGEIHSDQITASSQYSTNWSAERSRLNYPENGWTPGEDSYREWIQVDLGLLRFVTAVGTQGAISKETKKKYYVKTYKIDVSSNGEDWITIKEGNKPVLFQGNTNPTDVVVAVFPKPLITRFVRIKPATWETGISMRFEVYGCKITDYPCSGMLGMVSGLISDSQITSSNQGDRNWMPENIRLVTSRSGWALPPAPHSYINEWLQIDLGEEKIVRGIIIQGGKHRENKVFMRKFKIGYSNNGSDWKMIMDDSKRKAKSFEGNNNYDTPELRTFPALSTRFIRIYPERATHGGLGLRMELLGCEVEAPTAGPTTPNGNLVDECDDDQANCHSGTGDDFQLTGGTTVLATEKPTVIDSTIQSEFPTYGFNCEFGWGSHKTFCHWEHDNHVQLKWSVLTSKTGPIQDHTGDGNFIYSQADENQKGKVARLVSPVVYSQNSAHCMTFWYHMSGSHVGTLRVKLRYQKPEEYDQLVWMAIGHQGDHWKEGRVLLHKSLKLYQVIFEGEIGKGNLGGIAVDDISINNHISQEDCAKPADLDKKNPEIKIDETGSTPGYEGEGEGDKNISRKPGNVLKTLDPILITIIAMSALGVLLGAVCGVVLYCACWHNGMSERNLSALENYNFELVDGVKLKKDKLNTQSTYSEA
# Target: HER-2 (human (endogenous in MDA-MB-231)) (UniProt P04626)
# Assay: co-IP; HER2 antibody immunoprecipitates HER2 from soluble cell lysates (Cell Signaling lysis buffer Cat# 9803) of parental MDA-MB-231, NRP-1 KO and NRP-1 rescue cells; blot probed in turn with anti-NRP-1, anti-HER-2 and anti-ITGB3; control IP with lysis buffer without protein
row,Substance,binding
1,Integrin β3 (ITGB3) (from UniProt P05106 27-788) (receptor),binds
2,Neuropilin-1 (NRP-1) from the CRISPR/Cas9-resistant human rescue cDNA in NRP-1 KO MDA-MB-231 cells (from UniProt O14786 22-923) (receptor),binds
3,"Neuropilin-1 (NRP-1), endogenous in parental MDA-MB-231 cells (from UniProt O14786 22-923) (receptor)",binds

# From article PMC10178772
